One experiment concerns the target APC3-BioID2 (UniProt P30260). Put plainly: proximity labelling.
Another experiment deals with BioID2-APC2 (UniProt Q9UJX6). Put plainly: proximity labelling.

Amino acid sequences for entries named in this document (tags omitted).
UniProt P30260, whole entry: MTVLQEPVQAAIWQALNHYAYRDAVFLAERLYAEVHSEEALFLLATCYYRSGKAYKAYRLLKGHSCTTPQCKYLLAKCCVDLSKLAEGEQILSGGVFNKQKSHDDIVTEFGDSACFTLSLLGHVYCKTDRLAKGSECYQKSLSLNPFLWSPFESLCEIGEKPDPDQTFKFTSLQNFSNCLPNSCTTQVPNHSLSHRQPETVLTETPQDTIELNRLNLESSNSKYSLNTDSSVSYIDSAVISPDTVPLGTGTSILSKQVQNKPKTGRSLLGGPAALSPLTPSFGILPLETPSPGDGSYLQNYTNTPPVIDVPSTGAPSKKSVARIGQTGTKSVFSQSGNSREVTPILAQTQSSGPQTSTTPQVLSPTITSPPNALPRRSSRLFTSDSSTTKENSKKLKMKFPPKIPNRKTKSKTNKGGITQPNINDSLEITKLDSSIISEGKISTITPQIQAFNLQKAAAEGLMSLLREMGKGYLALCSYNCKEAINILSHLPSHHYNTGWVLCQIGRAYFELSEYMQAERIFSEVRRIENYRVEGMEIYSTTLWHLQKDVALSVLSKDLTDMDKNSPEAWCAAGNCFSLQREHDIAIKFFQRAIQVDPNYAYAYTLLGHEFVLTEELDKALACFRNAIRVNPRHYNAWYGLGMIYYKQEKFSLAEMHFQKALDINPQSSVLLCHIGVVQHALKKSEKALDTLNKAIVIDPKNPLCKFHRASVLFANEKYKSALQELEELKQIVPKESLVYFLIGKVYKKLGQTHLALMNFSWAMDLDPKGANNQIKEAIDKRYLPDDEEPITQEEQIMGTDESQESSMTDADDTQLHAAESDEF
UniProt Q9UJX6, whole entry: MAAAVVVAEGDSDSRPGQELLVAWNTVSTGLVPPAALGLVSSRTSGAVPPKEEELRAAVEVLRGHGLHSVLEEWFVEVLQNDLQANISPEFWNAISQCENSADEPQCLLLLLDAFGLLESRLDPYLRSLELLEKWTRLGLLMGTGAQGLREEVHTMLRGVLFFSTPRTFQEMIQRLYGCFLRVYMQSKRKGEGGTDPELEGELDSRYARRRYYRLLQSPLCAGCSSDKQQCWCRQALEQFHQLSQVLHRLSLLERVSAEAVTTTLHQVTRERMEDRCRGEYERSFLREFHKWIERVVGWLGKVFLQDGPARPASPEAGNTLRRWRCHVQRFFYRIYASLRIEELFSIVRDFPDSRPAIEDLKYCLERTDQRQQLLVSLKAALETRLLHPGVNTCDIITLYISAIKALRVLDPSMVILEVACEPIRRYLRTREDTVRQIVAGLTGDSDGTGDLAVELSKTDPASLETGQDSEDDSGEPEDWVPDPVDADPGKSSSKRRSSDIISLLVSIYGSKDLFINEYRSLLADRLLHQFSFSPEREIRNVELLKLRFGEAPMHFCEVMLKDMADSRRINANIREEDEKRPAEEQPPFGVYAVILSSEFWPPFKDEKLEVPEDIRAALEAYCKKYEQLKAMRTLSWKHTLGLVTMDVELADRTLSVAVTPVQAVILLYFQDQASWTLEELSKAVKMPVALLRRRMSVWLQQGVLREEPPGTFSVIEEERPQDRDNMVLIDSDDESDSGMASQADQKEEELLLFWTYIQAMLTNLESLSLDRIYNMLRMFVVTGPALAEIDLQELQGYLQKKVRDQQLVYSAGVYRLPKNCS

Results are given in words; binding and its absence hold for the method and conditions named. Binding seen in cells or lysates may run through a third protein. Here binding means that the protein was enriched with, or labelled near, the bait; the list need not be complete. A no says only that the protein was not detected with the bait.

As to “pericentriolar material 1 (PCM1) (from UniProt Q15154 1-2024)”, the binding entry in the experiment with APC3-BioID2 and with BioID2-APC2 was “no binding” in each case.

Take Cep192 (from UniProt Q8TEP8 1-2537): the binding result in the experiment with APC3-BioID2 and with BioID2-APC2 was “binds” each time.

For Cep152 (from UniProt O94986 1-1710), the binding entry in the experiment with APC3-BioID2 and with BioID2-APC2 was “binds” each time.

Cep350 (from UniProt Q5VT06 1-3117): the binding entry with APC3-BioID2 and in the experiment with BioID2-APC2 was “binds” throughout.

B1: Cep131 (protein, UniProt Q9UPN4 1-1083)
chain: MKGTRAIGSVPERSPAGVDLSLTGLPPPVSRRPGSAATTKPIVRSVSVVTGSEQKRKVLEATGPGGSQAINNLRRSNSTTQVSQPRSGSPRPTEPTDFLMLFEGSPSGKKRPASLSTAPSEKGATWNVLDDQPRGFTLPSNARSSSALDSPAGPRRKECTVALAPNFTANNRSNKGAVGNCVTTMVHNRYTPSERAPPLKSSNQTAPSLNNIIKAATCEGSESSGFGKLPKNVSSATHSARNNTGGSTGLPRRKEVTEEEAERFIHQVNQATVTIQRWYRHQVQRRGAGAARLEHLLQAKREEQRQRSGEGTLLDLHQQKEAARRKAREEKARQARRAAIQELQQKRALRAQKASTAERGPPENPRETRVPGMRQPAQELSPTPGGTAHQALKANNTGGGLPAAGPGDRCLPTSDSSPEPQQPPEDRTQDVLAQDAAGDNLEMMAPSRGSAKSRGPLEELLHTLQLLEKEPDVLPRPRTHHRGRYAWASEVTTEDDASSLTADNLEKFGKLSAFPEPPEDGTLLSEAKLQSIMSFLDEMEKSGQDQLDSQQEGWVPEAGPGPLELGSEVSTSVMRLKLEVEEKKQAMLLLQRALAQQRDLTARRVKETEKALSRQLQRQREHYEATIQRHLAFIDQLIEDKKVLSEKCEAVVAELKQEDQRCTERVAQAQAQHELEIKKLKELMSATEKARREKWISEKTKKIKEVTVRGLEPEIQKLIARHKQEVRRLKSLHEAELLQSDERASQRCLRQAEELREQLEREKEALGQQERERARQRFQQHLEQEQWALQQQRQRLYSEVAEERERLGQQAARQRAELEELRQQLEESSSALTRALRAEFEKGREEQERRHQMELNTLKQQLELERQAWEAGRTRKEEAWLLNREQELREEIRKGRDKEIELVIHRLEADMALAKEESEKAAESRIKRLRDKYEAELSELEQSERKLQERCSELKGQLGEAEGENLRLQGLVRQKERALEDAQAVNEQLSSERSNLAQVIRQEFEDRLAASEEETRQAKAELATLQARQQLELEEVHRRVKTALARKEEAVSSLRTQHEAAVKRADHLEELLEQHRRPTPSTK
On to B1, for which the binding result with APC3-BioID2 and with BioID2-APC2 was “binds” each time.
